## Results of single-concentration screens

The values are deposited in ChEMBL (CHEMBL3988442, “University of Dundee, Small-Polar-MMV Screening Library” (2021)).

Mtb glucose medium: 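Phenotypic screen: M. tuberculosis growth, glucose 7H9 medium, 3 days; the read-out is not stated. Concentration: 50 µM. Direction is inferred from retests: higher values go with more growth inhibition. Of about 69,000 compounds tested this way, about 760 (1.1%) reached 50% or more in at least one test.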
Mtb cholesterol medium: 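Growth of Mycobacterium tuberculosis over 4 days (cholesterol / DPPC medium with tyloxapol); the read-out is not stated. Tested at 50 µM. The record gives no direction; compounds that gave an IC50 in retests scored well above the rest, so higher reads as more growth inhibition. About 69,000 compounds were tested under these conditions; 0.54% (about 370) showed 50% or more at least once.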

The filed quantity is “Percent Effect” (%). The record does not define 0% and 100%; most values in the screen are far below 50% and negative numbers occur (in some assays of this library far below -100). The compounds are a random part of those screened. Two or more numbers in one place are separate tests of the same structure; such repeats can differ widely.

SMILES	Mtb glucose medium	Mtb cholesterol medium
Cc1nc2cc(C3CCN(Cc4cccc(F)c4F)C3)nn2c(O)c1C.O=C(O)CC(O)(CC(=O)O)C(=O)O (centres undefined)	25.84	-4.498
CC(C)(C)NCc1ccc(OCc2ccc3c(c2)OCCO3)cc1.Cl	21.35	14.47
CC(C)c1cc(C(=O)N2CCCN(Cc3ccccc3)CC2)n[nH]1	36.59 and 4.328	4.586
O=C(O)C(F)(F)F.O=C(O)C(F)(F)F.[H][C@@]12OCCN(CCOCC)[C@@]1([H])CC[C@H]2OCc1ccccn1	-4.271	-15.95
O=C(O)c1ccccc1CN1CCOC(CCc2ccncn2)C1 (centres undefined)	14.27	-7.333
Cn1cc(CNCC2Cn3nnc(-c4ccccc4)c3CO2)cn1 (centres undefined)	-20.12	-15.3
[H][C@]12CC[C@]([H])(CN(S(=O)(=O)c3cccnc3)C1)N(Cc1ccccc1)C2	-1.052	-4.829
Cn1ccc2c(C(=O)N3CCC4(CCOC4)C3)cccc21 (centres undefined)	1.895	9.322
CC(c1ccc2c(c1)OCCO2)N(C)C(=O)c1ccnnc1 (centres undefined)	-8.741	2.406
Cc1cc(CN2CCOC(CNc3cccnn3)C2)on1 (centres undefined)	4.887	-1.013
COc1ccc(OC2CCN(C(=O)CCc3nc(Cl)n[nH]3)CC2)cc1	15.51	7.214
Cc1noc(C)c1CC(=O)N1CCC(c2ccn3nccc3n2)CC1	14.02	1.992 and 3.981
Nc1nc(CNc2nccc(CCC(F)(F)F)n2)cs1	0.3289	5.733
O=C(Cc1ccc(Cl)s1)Nc1ccc2c(c1)C(=O)NC2=O	26.58	0.5414
CCS(=O)(=O)c1ccc(N2CCC(NC(C)=O)CC2)cc1	-2.454	-16.95
CS(=O)(=O)CCCN1CCOC2(CCc3ccccc32)C1 (centres undefined)	-3.932	-14.17

The last 2 entries again:

- CCS(=O)(=O)c1ccc(N2CCC(NC(C)=O)CC2)cc1 | Mtb glucose medium: -2.454%; Mtb cholesterol medium: -16.95%
- CS(=O)(=O)CCCN1CCOC2(CCc3ccccc32)C1 (centres undefined) | Mtb glucose medium: -3.932%; Mtb cholesterol medium: -14.17%